PubChem BioAssay AID1259308 | NCATS – 2017
The deposit covers about 59,000 reagents; this is a part drawn at random. About 1,510 of them (2.6%) count as active. 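Calls use total luciferase alone and ignore viability, so some active siRNAs may act by altering cell number.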 Reagents against one gene are numbered here. Further read-outs or replicates are left out here.

Aim: 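Knock-downs that increase output of a recombinant reporter protein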 (primary screen)
System: human HEK293 embryonic kidney cells stably expressing firefly luciferase (HEK-CMV-Luc2-Hygro)
Reagent: single siRNA against human genes, 0.8 pmol siRNA per well
Time to read-out: 72 h
Measured: 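Luciferase light (ONE-Glo) measured on one replicate plate set and viability (CellTiter-Glo) on the other, scaled to a negative control siRNA, with robust z-scores and luciferase per cell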
Scale: total luciferase, z-score: higher = more reporter protein produced
Hit rule: 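An siRNA counts as active if its total luciferase robust z-score exceeds 3; genes with two or more such siRNAs out of three were retested with fresh siRNAs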
Meaning of the calls: active = raised luciferase; inactive = no rise

For ANGPTL1 (GeneID 9068) #1, how do the results read?
total luciferase, z-score: -0.0564; call: inactive

What did the screen give for ANGPTL1 (GeneID 9068) #2?
total luciferase, z-score: 0.901; call: inactive

With ANGPTL1 (GeneID 9068) #3, what does the deposit list?
total luciferase, z-score: 0.621; call: inactive

What is on record for TP53INP2 (GeneID 58476) #1?
total luciferase, z-score: -0.677; call: inactive

How did the screen score TP53INP2 (GeneID 58476) #2?
total luciferase, z-score: 2.42; call: inactive

With TP53INP2 (GeneID 58476) #3, what does the deposit list?
total luciferase, z-score: -1.57; call: inactive

What did the screen give for CENPK (GeneID 64105) #1?
total luciferase, z-score: -1.31; call: inactive

For CENPK (GeneID 64105) #2, what was measured?
total luciferase, z-score: 0.492; call: inactive

What did the screen give for CENPK (GeneID 64105) #3?
total luciferase, z-score: 1.1; call: inactive

For MBTD1 (GeneID 54799) #1, what does the deposit list?
total luciferase, z-score: 2.31; call: inactive

How did the screen score MBTD1 (GeneID 54799) #2?
total luciferase, z-score: -0.0623; call: inactive

What did the screen give for MBTD1 (GeneID 54799) #3?
total luciferase, z-score: 0.447; call: inactive

How did the screen score NSDHL (GeneID 50814) #1?
total luciferase, z-score: -0.344; call: inactive

With NSDHL (GeneID 50814) #2, how do the results read?
total luciferase, z-score: 0.292; call: inactive

For NSDHL (GeneID 50814) #3, what does the deposit list?
total luciferase, z-score: 1.12; call: inactive

With PHEX (GeneID 5251) #1, how do the results read?
total luciferase, z-score: 0.26; call: inactive

For PHEX (GeneID 5251) #2, what does the deposit list?
total luciferase, z-score: 2.05; call: inactive

What is on record for PHEX (GeneID 5251) #3?
total luciferase, z-score: -2.45; call: inactive

How did the screen score PIK3R3 (GeneID 8503) #1?
total luciferase, z-score: 0.93; call: inactive

What is on record for PIK3R3 (GeneID 8503) #2?
total luciferase, z-score: 3.71; call: active

With PIK3R3 (GeneID 8503) #3, what was measured?
total luciferase, z-score: 0.943; call: inactive
